Data: patent publication US20170107282A1 (CELL MEDICA SWITZERLAND, published 2017)
Results are given in words; binding and its absence hold for the method and conditions named. Binding calls can cover weak binding; strength is not graded here.

Sequences of proteins named here, by UniProt entry; tags and fusion partners are left off. A change or cut given only in a name is not applied to a line headed by its entry.
UniProt P01375: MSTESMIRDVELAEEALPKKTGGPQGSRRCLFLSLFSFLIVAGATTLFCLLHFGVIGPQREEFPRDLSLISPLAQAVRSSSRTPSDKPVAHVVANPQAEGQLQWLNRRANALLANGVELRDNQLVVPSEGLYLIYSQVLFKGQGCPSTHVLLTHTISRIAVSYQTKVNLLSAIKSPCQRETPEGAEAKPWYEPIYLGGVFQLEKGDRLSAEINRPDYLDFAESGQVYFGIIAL

Target: natural form of human TNF alpha (human) (UniProt P01375)
Assay: sandwich ELISA, scFv immobilized, TNF alpha at 5 ng/mL

B1: scFv1 (scFv)
scFv: EIVMTQSPSTLSASVGDRVIITCQASQSISSYLAWYQQKPGKAPKLLIYWASTLASGVPSRFSGSGSGTEFTLTISSLQPDDFATYYCQSYYYTSNNSDGFWAFGQGTKLTVLGGGGGSGGGGSGGGGSGGGGSEVQLVESGGGLVQPGGSLRLSCKASGIDFSNSGITWVRQAPGKGLEWVGYIYPGFGIRNYANSVRGRFTISRDTSKNTVYLQMNSLRAEDTAVYYCARDPIYASSSGYADIWGQGTLVTVSS
  binding: binds
